PubChem BioAssay AID1259254, NCATS | 2017

- Aim: 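Gene knock-downs that lead to re-replication, shown by excess G2 DNA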 (primary screen)
- System: human HCT116 colorectal cancer cells
- Knock-down reagent: single siRNA against human genes
- Timing: 3 days
- Measured: 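Nuclei stained with Hoechst and imaged; cell-cycle phase assigned by DNA content; G2 share scaled per plate, non-targeting siRNA 0%, GMNN siRNA 100%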
- Reading the numbers: G2 robust z-score and G2 cells, % of GMNN control: higher = more G2 cells, more excess DNA replication; raw share of cells in G2: higher = larger share of cells with G2 DNA content
- Active means: 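Active siRNAs have a G2 robust z of 5 or more median absolute deviations over the median, which in these data means about 38% or higher of GMNN control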
The whole screen tested about 59,000 reagents; shown is a random part of them. About 1,550 of all reagents (2.6%) were called active. 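G2 share is only a proxy for re-replication; each gene was hit by three separate siRNAs, and active genes were retested.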 Raw values are not corrected between plates. Entries without a mark were called inactive. Reagents against one gene are numbered here. Not stated in the record: the amount of reagent.

no.	gene	reagent	G2 robust z-score	G2 cells, % of GMNN control	raw share of cells in G2 (%)
1	MRGPRE (GeneID 116534)	1	0.46	6.2	6.69
2	MRGPRE (GeneID 116534)	2	2.91	23.4	10.5
3	MRGPRE (GeneID 116534)	3	0.972	9.81	9.35
4	DLEU7 (GeneID 220107)	1	1.4	12.8	8.24
5	DLEU7 (GeneID 220107)	2	0.033	3.2	4.23
6	DLEU7 (GeneID 220107)	3	-0.403	0.134	3.24
7	SDF2L1 (GeneID 23753)	1	1.01	10.1	6.83
8	SDF2L1 (GeneID 23753)	2	1.24	11.7	8.81
9	SDF2L1 (GeneID 23753)	3	1.83	15.9	10.8
10	MEPCE (GeneID 56257)	1	-0.234	1.32	4.89
11	MEPCE (GeneID 56257)	2	-0.103	2.25	7.41
12	MEPCE (GeneID 56257)	3	1.25	11.8	8.67
13	IRX5 (GeneID 10265)	1	5.46 (active)	41.3	22.8
14	IRX5 (GeneID 10265)	2	-0.875	-3.19	4.31
15	IRX5 (GeneID 10265)	3	2.52	20.7	10.5
16	IL12RB2 (GeneID 3595)	1	-1.15	-5.09	3.75
17	IL12RB2 (GeneID 3595)	2	-0.42	0.01	4.21
18	IL12RB2 (GeneID 3595)	3	2.14	18	11.6
19	RNF13 (GeneID 11342)	1	0.0535	3.34	6.3
20	RNF13 (GeneID 11342)	2	-0.712	-2.04	3.29
21	RNF13 (GeneID 11342)	3	-1.04	-4.35	1.55
22	NTS (GeneID 4922)	1	0.515	6.59	5.45
23	NTS (GeneID 4922)	2	-0.555	-0.936	4.37
24	NTS (GeneID 4922)	3	2.77	22.5	13.7
25	NEFH (GeneID 4744)	1	-0.0955	2.3	6.25
26	NEFH (GeneID 4744)	2	1.08	10.6	6.69
27	NEFH (GeneID 4744)	3	-0.913	-3.46	4.1
28	SLC16A10 (GeneID 117247)	1	0.0636	3.41	5.77
29	SLC16A10 (GeneID 117247)	2	1.37	12.6	10.4
30	SLC16A10 (GeneID 117247)	3	0.477	6.32	8.61
31	EXOSC4 (GeneID 54512)	1	2.04	17.4	13.8
32	EXOSC4 (GeneID 54512)	2	8.9 (active)	65.6	28.5
33	EXOSC4 (GeneID 54512)	3	-0.732	-2.18	2.96
34	SPMAP1 (GeneID 388381)	1	2.26	18.8	10.2
35	SPMAP1 (GeneID 388381)	2	0.342	5.37	5.74
36	SPMAP1 (GeneID 388381)	3	-0.434	-0.0879	4.6
37	BPIFB3 (GeneID 359710)	1	4.03	31.3	14.7
38	BPIFB3 (GeneID 359710)	2	-0.0768	2.43	4.32
39	BPIFB3 (GeneID 359710)	3	-0.871	-3.16	2.92
40	RPL36AP8 (GeneID 643007)	1	6.05 (active)	45.5	19.6
41	RPL36AP8 (GeneID 643007)	2	0.155	4.06	4.33
42	RPL36AP8 (GeneID 643007)	3	0.134	3.91	5.12
43	TOP3B (GeneID 8940)	1	1.36	12.5	9.19
44	TOP3B (GeneID 8940)	2	1.73	15.1	10.6
45	TOP3B (GeneID 8940)	3	-0.458	-0.253	4.42
46	BBS2 (GeneID 583)	1	1.26	11.8	8.74
47	BBS2 (GeneID 583)	2	-0.499	-0.541	4.88
48	BBS2 (GeneID 583)	3	0.0803	3.53	5.31
49	OR5K4 (GeneID 403278)	1	0.64	7.47	6.53
50	OR5K4 (GeneID 403278)	2	0.614	7.28	6.41
51	OR5K4 (GeneID 403278)	3	-1.09	-4.67	2.85
52	NHLRC1 (GeneID 378884)	1	-0.328	0.661	4.53
53	NHLRC1 (GeneID 378884)	2	-0.458	-0.258	5.79
54	NHLRC1 (GeneID 378884)	3	4.86	37.2	19.5
55	CABS1 (GeneID 85438)	1	-0.0674	2.49	5.14
56	CABS1 (GeneID 85438)	2	1.75	15.3	7.79
57	CABS1 (GeneID 85438)	3	0.199	4.36	4.31
58	C10orf95 (GeneID 79946)	1	-1.1	-4.76	1.07
59	C10orf95 (GeneID 79946)	2	-0.343	0.555	4.67
60	C10orf95 (GeneID 79946)	3	0.124	3.84	5.98
61	IFT52 (GeneID 51098)	1	0.0393	3.24	5.09
62	IFT52 (GeneID 51098)	2	-0.0432	2.66	5.56
63	IFT52 (GeneID 51098)	3	-0.841	-2.95	2.32
64	LOC729681 (GeneID 729681)	1	-0.822	-2.82	2.98
65	LOC729681 (GeneID 729681)	2	0.576	7.02	5.59
66	LOC729681 (GeneID 729681)	3	0.125	3.85	4.58
67	HMGCS2 (GeneID 3158)	1	0.801	8.6	8.96
68	HMGCS2 (GeneID 3158)	2	-1.41	-6.95	1.65
69	HMGCS2 (GeneID 3158)	3	2.42	20	12.3
70	RAB9B (GeneID 51209)	1	-1.59	-8.21	2.23
71	RAB9B (GeneID 51209)	2	0.331	5.29	6.2
72	RAB9B (GeneID 51209)	3	-0.956	-3.76	2.36
73	PHF2 (GeneID 5253)	1	-0.417	0.0361	4.99
74	PHF2 (GeneID 5253)	2	3.94	30.7	16.3
75	PHF2 (GeneID 5253)	3	-0.982	-3.94	1.93
76	ZNF500 (GeneID 26048)	1	-0.468	-0.324	3.88
77	ZNF500 (GeneID 26048)	2	0.448	6.12	8.94
78	ZNF500 (GeneID 26048)	3	-0.872	-3.17	3.14
79	CD207 (GeneID 50489)	1	1.58	14.1	9.22
80	CD207 (GeneID 50489)	2	0.158	4.08	6.09
81	CD207 (GeneID 50489)	3	2.9	23.3	10.6
82	TMEM68 (GeneID 137695)	1	-0.76	-2.38	3.28
83	TMEM68 (GeneID 137695)	2	0.671	7.68	5.54
84	TMEM68 (GeneID 137695)	3	0.53	6.69	5.01
85	GCOM1 (GeneID 145781)	1	-0.731	-2.18	3.1
86	GCOM1 (GeneID 145781)	2	-1.02	-4.23	1.61
87	GCOM1 (GeneID 145781)	3	-0.288	0.943	3.4
